According to patent US20190233475A1 (Bicycle, published 2019):
No constants are given. Whether binding was seen depends on the method and setting. Some binding calls cover weakened binding; strength is not graded here.

Chains of the proteins cited; added tags and fusions are not shown. Residues count along the entry.
UniProt P14272, residues 391-638: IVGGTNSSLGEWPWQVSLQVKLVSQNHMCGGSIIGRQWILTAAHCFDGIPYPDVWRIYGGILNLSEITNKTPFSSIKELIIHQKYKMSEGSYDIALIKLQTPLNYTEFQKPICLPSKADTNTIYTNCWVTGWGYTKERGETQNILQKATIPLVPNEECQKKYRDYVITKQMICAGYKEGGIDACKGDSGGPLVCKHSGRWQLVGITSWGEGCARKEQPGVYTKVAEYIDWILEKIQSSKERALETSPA

Target: T1, rat plasma kallikrein (rat, UniProt P14272 391-638)
T1 construct: domain: catalytic domain; Expressed and purified in house; also called rat kallikrein; rPK
Assay: enzyme inhibition assay

binding	Binder
binds	ACKNYWNPCDLIPGPCA (three Cys linked to the TBMB (tris(bromomethyl)benzene) scaffold) [06-254-02]
binds	ACNNFPFRCVYYPDICA (three Cys linked to the TBMB (tris(bromomethyl)benzene) scaffold) [06-261]
binds	ACKNYWNPCDLVMDTCA (three Cys linked to the TBMB (tris(bromomethyl)benzene) scaffold) [06-254-03]
binds	ACNHWNPWCSVEPPVCA (three Cys linked to the TBMB (tris(bromomethyl)benzene) scaffold) [06-259-01]
binds	ACRNYWNPCTLINITCA (three Cys linked to the TBMB (tris(bromomethyl)benzene) scaffold) [06-255]
binds	ACNTWNPWCPWDAPLCA (three Cys linked to the TBMB (tris(bromomethyl)benzene) scaffold) [06-259-02]
binds	ACKNYWNPCDLVTISCA (three Cys linked to the TBMB (tris(bromomethyl)benzene) scaffold) [06-254]
binds	ACPYPFRCLHENLCA (three Cys linked to the TBMB (tris(bromomethyl)benzene) scaffold) [06-258]
binds	ACKNYWNPCDLIETTCA (three Cys linked to the TBMB (tris(bromomethyl)benzene) scaffold) [06-254-01]
binds	ACNHWNPWCSADPPICA (three Cys linked to the TBMB (tris(bromomethyl)benzene) scaffold) [06-259-03]
binds	ACNYWNPWCPWDAPLCA (three Cys linked to the TBMB (tris(bromomethyl)benzene) scaffold) [06-259-04]
